PubChem BioAssay AID652243 – Drosophila RNAi Screening Center | 2013
In all, the deposit lists about 24,000 reagents; this is an unselected part of those that have a named target and a result. Over the whole deposit, 246 (1%) got an active call. 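Plates not normalised; calls are printed but the firefly/Renilla ratio behind them is not deposited; fold cut for lowering reported inconsistently.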 Raw values are not corrected between plates. The record does not give: the amount of reagent.

Aim: 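Fly regulators of androgen-dependent reporter output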 (primary screen)
System: Drosophila S2R+ cells
Knock-down reagent: long dsRNA against Drosophila genes
Timing: 72 h (48 h, then 24 h hormone)
Challenge: synthetic androgen R1881 at 10 nM for 24 h
Detection: 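Firefly light from an androgen-responsive reporter and Renilla control light per well, raw and unnormalised, for each of two replicates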
Reading the numbers: firefly reporter light: higher = more light from androgen-responsive reporter; Renilla control light: higher = more constitutive control signal (cell number, transfection)
Rule for the call: 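Hit when the log firefly-to-Renilla ratio dropped or increased by a fixed fold versus the mean of GFP or LacZ controls across duplicate plates; lowering cut given as 1.5 and as 3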
Meaning of the calls: active = hit: reporter lowered or raised; inactive = no hit

Gene	amplicon	firefly reporter light, replicate 1	firefly reporter light, replicate 2	Renilla control light, replicate 1	Renilla control light, replicate 2	call
ppan	DRSC17030	3.16e5	3.00e5	3.23e6	2.82e6	inactive
ppan	DRSC28476	4.13e5	5.15e5	9.36e5	1.28e6	inactive
Ir94g	DRSC15231	1.32e5	1.54e5	2.20e6	2.89e6	inactive
Ir94g	DRSC27794	1.58e5	2.31e5	4.62e5	7.04e5	inactive
Ect3	DRSC15462	1.23e5	2.21e5	1.94e6	2.30e6	inactive
Ect3	DRSC25392	5.23e5	5.01e5	5.12e5	6.13e5	inactive
CG11581	DRSC19407	1.06e6	9.11e5	4.77e6	4.65e6	inactive
CG13937	DRSC08406	3.88e5	2.91e5	2.46e6	2.42e6	inactive
CG4213	DRSC00641	1.70e5	1.04e5	9.97e5	8.56e5	inactive
CG31871	DRSC02567	2.64e5	2.15e5	1.87e6	1.78e6	inactive
CG31871	DRSC02571	1.04e5	95415	7.35e5	8.57e5	inactive
CG31871	DRSC26619	2.09e5	2.49e5	7.37e5	7.52e5	inactive

A stretch from the list above, as a working copy:
Gene	amplicon	firefly reporter light, replicate 1	firefly reporter light, replicate 2	Renilla control light, replicate 1	Renilla control light, replicate 2	call
ppan	DRSC17030	3.16e5	3.00e5	3.23e6	2.82e6	inactive
ppan	DRSC28476	4.13e5	5.15e5	9.36e5	1.28e6	inactive
Ir94g	DRSC15231	1.32e5	1.54e5	2.20e6	2.89e6	inactive
Ir94g	DRSC27794	1.58e5	2.31e5	4.62e5	7.04e5	inactive

The list goes on.
Gene	amplicon	firefly reporter light, replicate 1	firefly reporter light, replicate 2	Renilla control light, replicate 1	Renilla control light, replicate 2	call
puml	DRSC06793	2.03e5	1.82e5	1.62e6	1.06e6	inactive
Rpt3	DRSC20283	2.34e5	2.00e5	2.06e6	2.27e6	inactive
Rpt3	DRSC23412	3.16e5	1.59e5	8.51e5	2.98e5	inactive
Nup43	DRSC16279	76901	1.39e5	1.08e6	1.58e6	inactive
Uggt	DRSC11315	28648	21155	3.66e5	2.56e5	inactive
Tret1-2	DRSC07117	4.18e5	2.92e5	1.61e6	2.07e6	inactive
Tret1-2	DRSC28985	6.29e5	4.16e5	1.27e6	9.54e5	inactive
CG13907	DRSC08377	7.25e5	6.78e5	1.08e6	5.82e5	inactive
CG13907	DRSC25983	2.19e5	3.22e5	1.06e6	8.01e5	inactive
Tim9a	DRSC19753	4.24e5	5.27e5	3.30e6	3.38e6	inactive
CG5846	DRSC02904	6.27e5	7.50e5	1.21e6	1.45e6	inactive
CG12177	DRSC19437	4.96e5	5.09e5	3.53e6	3.51e6	inactive
CG12177	DRSC21524	5.58e5	4.77e5	2.67e6	2.23e6	inactive
CG12177	DRSC29474	5.78e5	5.33e5	9.32e5	9.32e5	inactive
